Values of other authors, collected in patent publication US20060074046A1, “Oral administration of decitabine salt” (priority 2004, published 2006).
For at least one compound, name, drawing or mass did not settle the structure.

Settings: cited from earlier work

## O=S(O)O [Sulfurous]
  pKa1: 1.85
  pKa2: 7.20
